No constants are given. Whether binding was seen depends on the method and setting. Some entries that bind do so weakly or less than the wild type. Sequences can lack the tags named with a protein. One block for each binder: values may come before it.
Legend:
His-Pex6 [1] = target: T1, His-Pex6 (S. cerevisiae, UniProt P33760 1-1030); assay: SEC; Superose6 Increase 10/300, GF buffer with 1 mM ATP, after the two-step affinity purification; both purified
T1 construct: Pex6, AAA-ATPase of S. cerevisiae; no limits stated for the construct; In all experiments it stood in a complex with Pex1-FLAG or a Pex1 variant; also called ScPex6; His-tagged Pex6; source: E. coli BL21*(DE3), co-expressed with Pex1-FLAG or its variants; in lysate, then purified (Ni-NTA, anti-FLAG, Superose6 Increase); not shown: His, N-terminal, kept
T1 sequence: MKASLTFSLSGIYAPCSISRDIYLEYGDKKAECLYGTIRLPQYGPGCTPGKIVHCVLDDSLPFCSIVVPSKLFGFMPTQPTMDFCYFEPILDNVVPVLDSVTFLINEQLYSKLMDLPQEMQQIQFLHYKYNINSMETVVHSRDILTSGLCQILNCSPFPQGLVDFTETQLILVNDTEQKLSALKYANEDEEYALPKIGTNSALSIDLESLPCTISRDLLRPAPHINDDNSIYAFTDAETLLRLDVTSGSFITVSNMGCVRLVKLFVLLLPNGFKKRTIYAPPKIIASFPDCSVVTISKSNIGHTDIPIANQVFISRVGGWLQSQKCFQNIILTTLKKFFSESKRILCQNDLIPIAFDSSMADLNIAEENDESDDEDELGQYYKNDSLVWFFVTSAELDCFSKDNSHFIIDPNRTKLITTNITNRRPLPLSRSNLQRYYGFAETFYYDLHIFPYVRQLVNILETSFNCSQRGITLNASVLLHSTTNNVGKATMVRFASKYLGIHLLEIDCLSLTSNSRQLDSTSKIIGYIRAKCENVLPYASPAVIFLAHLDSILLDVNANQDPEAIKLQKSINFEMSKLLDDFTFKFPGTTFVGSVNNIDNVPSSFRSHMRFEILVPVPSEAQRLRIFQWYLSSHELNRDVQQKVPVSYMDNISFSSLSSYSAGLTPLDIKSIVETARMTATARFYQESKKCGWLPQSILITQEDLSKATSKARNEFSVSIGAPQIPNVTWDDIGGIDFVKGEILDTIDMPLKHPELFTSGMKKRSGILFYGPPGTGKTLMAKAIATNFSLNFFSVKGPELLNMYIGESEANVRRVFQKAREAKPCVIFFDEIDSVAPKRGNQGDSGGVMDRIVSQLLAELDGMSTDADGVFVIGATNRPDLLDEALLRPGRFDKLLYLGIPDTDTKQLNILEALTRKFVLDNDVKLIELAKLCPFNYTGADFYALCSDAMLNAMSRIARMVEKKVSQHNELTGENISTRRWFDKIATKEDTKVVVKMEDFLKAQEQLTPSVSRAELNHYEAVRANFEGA

His-Pex6 [2] = target: T1, His-Pex6; assay: tandem affinity co-purification; Pex1-FLAG and His-Pex6 variants co-expressed in E. coli BL21*(DE3); lysate bound to Ni-NTA (His on Pex6), eluate applied to anti-FLAG agarose (FLAG on Pex1); buffers with 1 mM ATP
[3] = target: T2, ΔN1-Pex6 (His-tagged, lacks the first 184 amino acids) (S. cerevisiae) (UniProt P33760); assay: as above
T2 sequence: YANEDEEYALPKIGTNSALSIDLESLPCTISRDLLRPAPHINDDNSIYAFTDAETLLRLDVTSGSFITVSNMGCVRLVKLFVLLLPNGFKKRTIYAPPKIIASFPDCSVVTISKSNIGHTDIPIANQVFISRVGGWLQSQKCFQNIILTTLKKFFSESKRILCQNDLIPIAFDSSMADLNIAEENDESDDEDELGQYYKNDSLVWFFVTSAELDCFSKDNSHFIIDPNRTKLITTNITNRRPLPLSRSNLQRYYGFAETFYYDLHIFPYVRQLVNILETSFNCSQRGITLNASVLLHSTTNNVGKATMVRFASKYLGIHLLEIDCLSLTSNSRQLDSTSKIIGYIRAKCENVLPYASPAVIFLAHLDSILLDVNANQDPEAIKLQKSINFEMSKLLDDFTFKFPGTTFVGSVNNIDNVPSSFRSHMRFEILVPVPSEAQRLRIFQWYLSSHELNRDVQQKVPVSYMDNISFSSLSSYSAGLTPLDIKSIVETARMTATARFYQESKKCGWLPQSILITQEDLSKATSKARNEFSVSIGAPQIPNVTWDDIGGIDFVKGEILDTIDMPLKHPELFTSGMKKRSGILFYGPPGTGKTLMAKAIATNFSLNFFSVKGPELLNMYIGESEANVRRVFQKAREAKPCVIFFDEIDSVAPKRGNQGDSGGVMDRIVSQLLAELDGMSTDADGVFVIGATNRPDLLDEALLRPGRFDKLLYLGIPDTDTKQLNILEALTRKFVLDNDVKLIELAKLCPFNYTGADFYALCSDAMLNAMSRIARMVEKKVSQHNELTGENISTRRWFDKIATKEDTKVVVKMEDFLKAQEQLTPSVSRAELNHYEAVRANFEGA

His-Pex6 [4] = target: T1, His-Pex6; assay: cryo-EM structure; Pex1-FLAG/His-Pex6 incubated with 1 mM ATP and mEOS-Pex15 1-309, hexamer peak of Superose6 Increase; GF buffer; no density for the substrate; both purified

binding (His-Pex6 [1]): binds
binding (His-Pex6 [2]): binds
B1: Pex1-Δ941-967-FLAG (protein, UniProt P24004)
chain: MTTTKRLKFENLRIQFSNAIVGNFLRLPHSIINVLESTNYAIQEFGIAVHSHNSDIPIVHLGWDGHDSGSSENVVLINPVLATVYDLNQKSPLVDLYIQRYDHTHLATEVYVTPETSDDWEIIDANAMRFQNGEILHQTRIVTPGETLICYLEGIVTKFKIDRVEPSMKSARITDGSLVVVAPKVNKTRLVKAEYGHSNKTILKNGAIQLLKKVILRSTVCKMDFPKDNLFVVYISDGAQLPSQKGYASIVKCSLRQSKKSDSDNKSVGIPSKKIGVFIKCDSQIPENHIALSSHLWDAFFTHPMNGAKIKLEFLQMNQANIISGRNATVNIKYFGKDVPTKSGDQYSKLLGGSLLTNNLILPTEQIIIEIKKGESEQQLCNLNEISNESVQWKVTQMGKEEVKDIIERHLPKHYHVKETGEVSRTSKDEDDFITVNSIKKEMVNYLTSPIIATPAIILDGKQGIGKTRLLKELINEVEKDHHIFVKYADCETLHETSNLDKTQKLIMEWCSFCYWYGPSLIVLDNVEALFGKPQANDGDPSNNGQWDNASKLLNFFINQVTKIFNKDNKRIRVLFSGKQKTQINPLLFDKHFVSETWSLRAPDKHARAKLLEYFFSKNQIMKLNRDLQFSDLSLETEGFSPLDLEIFTEKIFYDLQLERDCDNVVTRELFSKSLSAFTPSALRGVKLTKETNIKWGDIGALANAKDVLLETLEWPTKYEPIFVNCPLRLRSGILLYGYPGCGKTLLASAVAQQCGLNFISVKGPEILNKFIGASEQNIRELFERAQSVKPCILFFDEFDSIAPKRGHDSTGVTDRVVNQLLTQMDGAEGLDGVYILAATSRPDLIDSALLRPGRLDKSVICNIPTESERLDILQAIVNSKDKDTGQKKFALEKNADLKLIAEKTAGFSGADLQGLCYNAYLKSVHRWLSAADQSEVVPGQDVVHETKTSTSAASELTAVVTINDLLEACQETKPSISTSELVKLRGIYDRFQKDRNGEMPNGENSIDIGSRLSLM

binding (His-Pex6 [2]): binds
binding [3]: binds
binding (His-Pex6 [4]): binds
B2: Pex1-FLAG (protein, UniProt P24004 1-1043)
chain: MTTTKRLKFENLRIQFSNAIVGNFLRLPHSIINVLESTNYAIQEFGIAVHSHNSDIPIVHLGWDGHDSGSSENVVLINPVLATVYDLNQKSPLVDLYIQRYDHTHLATEVYVTPETSDDWEIIDANAMRFQNGEILHQTRIVTPGETLICYLEGIVTKFKIDRVEPSMKSARITDGSLVVVAPKVNKTRLVKAEYGHSNKTILKNGAIQLLKKVILRSTVCKMDFPKDNLFVVYISDGAQLPSQKGYASIVKCSLRQSKKSDSDNKSVGIPSKKIGVFIKCDSQIPENHIALSSHLWDAFFTHPMNGAKIKLEFLQMNQANIISGRNATVNIKYFGKDVPTKSGDQYSKLLGGSLLTNNLILPTEQIIIEIKKGESEQQLCNLNEISNESVQWKVTQMGKEEVKDIIERHLPKHYHVKETGEVSRTSKDEDDFITVNSIKKEMVNYLTSPIIATPAIILDGKQGIGKTRLLKELINEVEKDHHIFVKYADCETLHETSNLDKTQKLIMEWCSFCYWYGPSLIVLDNVEALFGKPQANDGDPSNNGQWDNASKLLNFFINQVTKIFNKDNKRIRVLFSGKQKTQINPLLFDKHFVSETWSLRAPDKHARAKLLEYFFSKNQIMKLNRDLQFSDLSLETEGFSPLDLEIFTEKIFYDLQLERDCDNVVTRELFSKSLSAFTPSALRGVKLTKETNIKWGDIGALANAKDVLLETLEWPTKYEPIFVNCPLRLRSGILLYGYPGCGKTLLASAVAQQCGLNFISVKGPEILNKFIGASEQNIRELFERAQSVKPCILFFDEFDSIAPKRGHDSTGVTDRVVNQLLTQMDGAEGLDGVYILAATSRPDLIDSALLRPGRLDKSVICNIPTESERLDILQAIVNSKDKDTGQKKFALEKNADLKLIAEKTAGFSGADLQGLCYNAYLKSVHRWLSAADQSEVVPGNDNIEYFSINEHGRREENRLRLKTLLQQDVVHETKTSTSAASELTAVVTINDLLEACQETKPSISTSELVKLRGIYDRFQKDRNGEMPNGENSIDIGSRLSLM
